{"source": "PubChem BioAssay AID1259308 | NCATS – 2017", "screen": "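Genes whose loss raises luciferase production in HEK293 cells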 (primary screen)", "cell system": "human HEK293 embryonic kidney cells stably expressing firefly luciferase (HEK-CMV-Luc2-Hygro)", "reagents": "single siRNA against human genes, 0.8 pmol siRNA per well", "timing": "72 h", "measured": "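Reporter luminescence and viable-cell signal on separate replicate plates, given as percent of non-targeting control and median/MAD z-scores, plus per-cell luciferase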", "scale": "total luciferase, z-score: higher = more reporter protein produced", "active means": "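An siRNA counts as active if its total luciferase robust z-score exceeds 3; genes with two or more such siRNAs out of three were retested with fresh siRNAs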", "calls": "active = raised luciferase; inactive = no rise", "note": "Shown is an unselected part of about 59,000 reagents tested. In the full data, about 1,510 (2.6%) are marked active. 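Calls use total luciferase alone and ignore viability, so some active siRNAs may act by altering cell number.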 Entries without a mark were called inactive. Further read-outs or replicates are left out here."}
{"target": "HYAL2", "PubChem SID": "SID160732087", "total luciferase, z-score": -0.403}
{"target": "HYAL2", "PubChem SID": "SID160756136", "total luciferase, z-score": 0.279}
{"target": "HYAL2", "PubChem SID": "SID160756242", "total luciferase, z-score": 0.16}
{"target": "AIRIM", "PubChem SID": "SID160733575", "total luciferase, z-score": -1.28}
{"target": "AIRIM", "PubChem SID": "SID160742591", "total luciferase, z-score": -2.23}
{"target": "AIRIM", "PubChem SID": "SID160742592", "total luciferase, z-score": -0.412}
{"target": "FGF7P6", "PubChem SID": "SID160733183", "total luciferase, z-score": 1.97}
{"target": "FGF7P6", "PubChem SID": "SID160765610", "total luciferase, z-score": 0.24}
{"target": "FGF7P6", "PubChem SID": "SID160765611", "total luciferase, z-score": 0.523}
{"target": "CIDEB", "PubChem SID": "SID160738446", "total luciferase, z-score": -0.499}
{"target": "CIDEB", "PubChem SID": "SID160738447", "total luciferase, z-score": -0.815}
{"target": "CIDEB", "PubChem SID": "SID160738448", "total luciferase, z-score": 1.59}
{"target": "ELOVL6", "PubChem SID": "SID160748577", "total luciferase, z-score": 0.51}
{"target": "ELOVL6", "PubChem SID": "SID160748578", "total luciferase, z-score": -1.72}
{"target": "ELOVL6", "PubChem SID": "SID160748579", "total luciferase, z-score": 0.654}
{"target": "TBC1D2B", "PubChem SID": "SID160735456", "total luciferase, z-score": 0.594}
{"target": "TBC1D2B", "PubChem SID": "SID160735457", "total luciferase, z-score": 1.09}
{"target": "TBC1D2B", "PubChem SID": "SID160735458", "total luciferase, z-score": "4.15 (active)"}
{"target": "PAPOLG", "PubChem SID": "SID160748113", "total luciferase, z-score": 0.0727}
{"target": "PAPOLG", "PubChem SID": "SID160748114", "total luciferase, z-score": 2.13}
{"target": "PAPOLG", "PubChem SID": "SID160748115", "total luciferase, z-score": -0.674}

Hits (from the list above):
{"target": "TBC1D2B", "PubChem SID": "SID160735458", "total luciferase, z-score": "4.15 (active)"}

Further records follow:
{"target": "CD247", "PubChem SID": "SID160738303", "total luciferase, z-score": -0.244}
{"target": "CD247", "PubChem SID": "SID160738314", "total luciferase, z-score": -0.339}
{"target": "CD247", "PubChem SID": "SID160738323", "total luciferase, z-score": 0.732}
{"target": "NDUFA11", "PubChem SID": "SID160724784", "total luciferase, z-score": -1.19}
{"target": "NDUFA11", "PubChem SID": "SID160724785", "total luciferase, z-score": -0.139}
{"target": "NDUFA11", "PubChem SID": "SID160724786", "total luciferase, z-score": 0.0122}
{"target": "TVP23C", "PubChem SID": "SID160724928", "total luciferase, z-score": -0.632}
{"target": "TVP23C", "PubChem SID": "SID160732660", "total luciferase, z-score": 0.342}
{"target": "TVP23C", "PubChem SID": "SID160760932", "total luciferase, z-score": -0.186}
{"target": "CCDC174", "PubChem SID": "SID160740392", "total luciferase, z-score": "5.24 (active)"}
{"target": "CCDC174", "PubChem SID": "SID160740393", "total luciferase, z-score": "3.15 (active)"}
{"target": "CCDC174", "PubChem SID": "SID160740394", "total luciferase, z-score": -0.0849}
